This passage reports binding results from publication PMC12663309.

Chains of the proteins cited; added tags and fusions are not shown.
UniProt Q8TDX7: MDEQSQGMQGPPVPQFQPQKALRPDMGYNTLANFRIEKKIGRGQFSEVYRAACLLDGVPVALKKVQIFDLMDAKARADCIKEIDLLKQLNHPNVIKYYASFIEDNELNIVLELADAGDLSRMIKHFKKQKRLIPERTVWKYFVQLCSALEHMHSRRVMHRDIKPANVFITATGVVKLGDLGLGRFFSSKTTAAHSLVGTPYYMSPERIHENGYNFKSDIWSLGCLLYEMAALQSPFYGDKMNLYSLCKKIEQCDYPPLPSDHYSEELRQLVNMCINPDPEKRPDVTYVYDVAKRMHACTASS

These are yes or no findings as the source states them, for the method shown. In cells and extracts the contact can be indirect. A yes stands for co-enrichment or nearness to the bait. Other partners may have been found.

This test has as its target NIMA-related kinase 7 (NEK7), endogenous, HepG2 mitochondria (human (endogenous in HepG2)) (UniProt Q8TDX7). Put plainly: affinity purification with mass spectrometry; mitochondrial proteins purified from HepG2 cells; co-immunoprecipitation with NEK7 antibody (Abcam) against IgG, agarose magnetic beads, gel, trypsin, LC-MS/MS.

B1: TDIF2 (protein, UniProt Q5QJE6 1-756)
chain: MVVTRSARAKASIQAASAESSGQKSFAANGIQAHPESSTGSDARTTAESQTTGKQSLIPRTPKARKRKSRTTGSLPKGTEPSTDGETSEAESNYSVSEHHDTILRVTRRRQILIACSPVSSVRKKPKVTPTKESYTEEIVSEAESHVSGISRIVLPTEKTTGARRSKAKSLTDPSQESHTEAISDAETSSSDISFSGIATRRTRSMQRKLKAQTEKKDSKIVPGNEKQIVGTPVNSEDSDTRQTSHLQARSLSEINKPNFYNNDFDDDFSHRSSENILTVHEQANVESLKETKQNCKDLDEDANGITDEGKEINEKSSQLKNLSELQDTSLQQLVSQRHSTPQNKNAVSVHSNLNSEAVMKSLTQTFATVEVGRWNNNKKSPIKASDLTKFGDCGGSDDEEESTVISVSEDMNSEGNVDFECDTKLYTSAPNTSQGKDNSVLLVLSSDESQQSENSENEEDTLCFVENSGQRESLSGDTGSLSCDNALFVIDTTPGMSADKNFYLEEEDKASEVAIEEEKEEEEDEKSEEDSSDHDENEDEFSDEEDFLNSTKAKLLKLTSSSIDPGLSIKQLGGLYINFNADKLQSNKRTLTQIKEKKKNELLQKAVITPDFEKNHCVPPYSESKYQLQKKRRKERQKTAGDGWFGMKAPEMTNELKNDLKALKMRASMDPKRFYKKNDRDGFPKYFQIGTIVDNPADFYHSRIPKKQRKRTIVEELLADSEFRRYNRRKYSEIMAEKAANAAGKKFRKKKKFRN
Regarding B1, the binding result is on record as “binds”.

B2: succinate dehydrogenase complex iron sulfur subunit B (SDHB), endogenous, HepG2 mitochondria (protein, UniProt P21912 29-280)
chain: AQTAAATAPRIKKFAIYRWDPDKAGDKPHMQTYEVDLNKCGPMVLDALIKIKNEVDSTLTFRRSCREGICGSCAMNINGGNTLACTRRIDTNLNKVSKIYPLPHMYVIKDLVPDLSNFYAQYKSIEPYLKKKDESQEGKQQYLQSIEEREKLDGLYECILCACCSTSCPSYWWNGDKYLGPAVLMQAYRWMIDSRDDFTEERLAKLQDPFSLYRCHTIMNCTRTCPKGLNPGKAIAEIKKMMATYKEKKASV
For the molecule B2, the binding entry is given as “binds”.
